Data reported in patent US8207143B2, “Methods of treating cancer and other conditions or disease states using LFMAU and LDT” (Yale University, priority 2005, dated 2012).
At least one structure is not confirmed: it was looked up by name or label, or the drawing left a doubt.

Columns and labels:
colon 38 mouse tumor [1] = assay: Experiment 1: LFMAU on growth of colon 38 in immuno-competent mouse; assay type: in vivo
colon 38 [2] = assay: Experiment 2: LFMAU enhancement of oxaliplatin on colon 38 growth in BDF1 female mice; assay type: in vivo, mouse; details: LFMAU with oxaliplatin
colon 38 [3] = assay: Experiment 3: LFMAU enhancement of oxaliplatin on colon 38 growth in NCR Nu/Nu mice; assay type: in vivo, mouse; details: NCR Nu/Nu nude mice, LFMAU with oxaliplatin
colon 38 [4] = assay: Experiments 4 and 5: LFMAU enhancement of FU, Gemcitabine and LOddC on colon 38 in BCF1 female mice; assay type: in vivo, mouse
B16 melanoma = assay: Experiment 6: B16 melanoma injected subcutaneously into C57 BL6 mice; assay type: in vivo, mouse; details: LFMAU 50 mg/kg B.I.D., no other anti-cancer compound
Description: These experiments includes B16 melanoma which was injected subcutaneously into C57 BL6 mice which were pretreated for 5 days with LFMAU (B.I.D.) and then subsequently for ten days with LFMAU (BID.) at 50 mg/kg. with no other anti-cancer compound. This experiment yielded tumor size S.D. for the Controls of 831±474.5 and for the LFMAU treated mice of 160±150.3.

human tumors = assay: Experiment 6 (separate): human tumors implanted in NCR Nu/Nu mice, LFMAU alone or combined (FIG. 6); assay type: in vivo
colon 38 mouse tumor [5] = assay: Experiment 7: LDT and LFMAU alone and with 5-Fluorouracil/leucovorin on colon 38 in immuno-competent mice; assay type: in vivo; details: LDT 100 mg/kg
Description: This tumor is passed from a solid tumor growing in mice. Several grams (assuming a gram per ml) are pressed through a sterile screen and suspended in a tissue culture media without phenol red or fetal calf serum (a balanced salt solution) at 2 ml/gram of tumor. Then 0.1 ml of this tumor suspension is implanted into the flank of the mouse. Ten days to two weeks after implantation (when the tumors could be measured with a caliper), unless otherwise indicated, the drug therapy was initiated.
In general, drugs are delivered at a rate of 0.1 ml per 10 grams of body weight. Every day the mice are weighed to deter the amount to be injected and as a index of toxicity.
The Tumor Volume is calculated from the measurements by the formula: length (mm)×width (mm)×width (mm)×II/6 (as a % of Day 1).
This experiment was designed to determine the effect of LDT and LFMAU alone and in combination with 5-Fluorouracil with leucovorin rescue on the growth of mouse tumor (colon 38) in immuno-competent mice. The drugs were administered to the mice according to the following schedule:
5FU/LV—150 mg/kg each i.p. once on day one
LDT—100 mg/kg p.o. b.i.d. for 5 days
LFMAU—50 mg/kg p.o. bid for 5 days
Combination groups received both treatments as per above schedules.

colon 38 [6] = assay: Experiment 8: LDT and LFMAU enhancement of oxaliplatin on colon 38 growth in C57BL6 female mice; assay type: in vivo, mouse
Description: This tumor is passed from a solid tumor growing in mice. Several grams (assuming a gram per ml) are pressed through a sterile screen and suspended in a tissue culture media without phenol red or fetal calf serum (a balanced salt solution) at 2 ml/gram of tumor. Then 0.1 ml of this tumor suspension is implanted into the flank of the mouse. Ten days to two weeks after implantation (when the tumors could be measured with a caliper), unless otherwise indicated, the drug therapy was initiated. In general, drugs are delivered at a rate of 0.1 ml per 10 grams of body weight. Every day the mice are weighed to deter the amount to be injected and as a index of toxicity. The Tumor Volume is calculated from the measurements by the formula: length (mm)×width (mm)×width (mm)×II/6 (as a % of Day 1). Experiment 8 tested the effects of LDT (L-dT) and LFMAU (15 mg/kg of each, same schedule as above) on the enhancement of anti-cancer drug effect (oxaliplatin 10 mg/kg i.p., once on day 1) on colon 38 growth in C57BL6 female mice.

murine tumor colon 38 [7] = assay: Experiment 10: L-FMAU with gemcitabine on colon 38 in Rag 1 mice; assay type: in vivo, mouse
murine tumor colon 38 [8] = assay: Experiment 10: L-FMAU with gemcitabine on colon 38 in C57B1 mice; assay type: in vivo, mouse
[9] = immunocompetent mice, LFMAU 50 mg/kg p.o. b.i.d. for 5 days

Cc1cn([C@H]2O[C@@H](CO)[C@H](O)[C@H]2F)c(=O)[nH]c1=O [LFMAU, 2′-fluoro-5-methyl-β-L-arabinofuranosyluridine]
mice that had their tumor size double in 5 days (colon 38 mouse tumor [1]; colon 38, immunocompetent mice, LFMAU treated group, control group 14 of 15): 5 of 15
effect on growth of colon 38 mouse tumor (FIG. 1) (colon 38 mouse tumor [1]; immunocompetent mice, LFMAU alone): slows down the growth
duration of the effect after treatment (colon 38 [2]): lasts well after the LFMAU treatment is stopped
enhancement of anti-tumor effect of Oxaliplatin on colon 38 (FIG. 2) (colon 38 [2]): clearly enhancd the anti-tumor effect of Oxaliplatin
duration of the effect after treatment (colon 38 [3]): lasts well after the LFMAU treatment is stopped
enhancement of anti-tumor effect of Oxaliplatin on colon 38 (FIG. 3) (colon 38 [3]): clearly enhancd the anti-tumor effect of Oxaliplatin
duration of the effect after treatment (colon 38 [4]; LFMAU with FU): lasts well after the LFMAU treatment was stopped
enhancement of anti-cancer effect of FU on colon 38 (FIGS. 4 and 5) (colon 38 [4]; LFMAU with FU): clearly increased the anti-cancer effect
tumor volume with Gemcitabine on colon 38 (FIGS. 4 and 5) (colon 38 [4]; LFMAU with Gemcitabine): decreases the volume of the tumor to below its starting level on day 1
enhancement of anti-cancer effect of LOddC on colon 38 (FIGS. 4 and 5) (colon 38 [4]; LFMAU with LOddC): enhances the anti-cancer effect
anticancer effect on melanoma (B16 melanoma): clearly showed an anticancer effect
effect on human tumor, LFMAU alone (FIG. 6) (human tumors): effective against the human tumor
effect on human tumor, LFMAU combined with other anti-cancer drugs (FIG. 6) (human tumors): effect was enhanced, in some instances to below the day 1 starting tumor volumes
duration of the effect after therapy (FIG. 7) (colon 38 mouse tumor [5]; [9]): lasted well past the 5 day therapy
effect on growth of colon 38 mouse tumor, alone (FIG. 7) (colon 38 mouse tumor [5]; [9]): slows down the growth
effect on the anti-cancer activity of 5-FU/LV (FIG. 7) (colon 38 mouse tumor [5]; with 5FU/LV 150 mg/kg each i.p. once on day one, LFMAU 50 mg/kg p.o. b.i.d. 5 days): significant (additive or synergistic)
enhancement of anti-tumor effect of Oxaliplatin on colon 38 (FIG. 8) (colon 38 [6]; 15 mg/kg of each nucleoside, oxaliplatin 10 mg/kg i.p. once on day 1): clearly enhanced the anti-tumor effect of Oxaliplatin
duration of the effect after treatment (FIG. 8) (colon 38 [6]; 15 mg/kg with oxaliplatin 10 mg/kg i.p.): lasts well after the nucleoside treatment is stopped
anti-tumor effect on colon 38 (FIGS. 10-12) (murine tumor colon 38 [7]; LFMAU days 1-5 at 15 and 50 mg/kg): exhibited anti-tumor effect
effect with gemcitabine on colon 38 (FIGS. 10-12) (murine tumor colon 38 [7]; gemcitabine 400 mg/kg i.p. once on day one, LFMAU days 1-5): worked better with gemcitibine
anti-tumor effect on colon 38 (FIGS. 10-12) (murine tumor colon 38 [8]; C57B1 mice, LFMAU days 1-5 at 15 and 50 mg/kg): exhibited anti-tumor effect
effect with gemcitabine on colon 38 (FIGS. 10-12) (murine tumor colon 38 [8]; C57B1 mice, gemcitabine 400 mg/kg i.p. once on day one, LFMAU days 1-5): worked better with gemcitibine
effect of 15 mg/kg with gemcitabine in C57B1 group compared with Rag 1 group (murine tumor colon 38 [8]; L-FMAU 15 mg/kg with gemcitabine 400 mg/kg i.p.): slightly better
